11 molecules from paper PMC11375702, “Early Preclinical Studies of Ergosterol Peroxide and Biological Evaluation of Its Derivatives” (ACS Omega, 2024) can be followed below.

This series has as its system SUM149. The series is described as follows: CellTiter-Glo 72 h cytotoxicity assay, SUM149. It counts as cell-based, human. Particulars: for LIPE: LiPE = pIC50 – log P, SUM149; for TI (BJ/SUM149): EC50 BJ / EC50 SUM149. The source says:
First, topological polar surface area (tPSA), a widely used molecular descriptor that provides insight into compound absorption and membrane penetration, was theoretically calculated for these compounds along with the estimated c log P (partition coefficient) or log P to further assess their global therapeutic potential.[18],[19] Lipophilicity, a measurable and predictable physical property, can provide practical guidance in designing compounds with improved molecular properties.[20] The tPSA sums the contribution of the surface area of polar atoms, enabling us to determine whether the compounds are more likely to be cell membrane permeable. The aqueous solubility was measured by ultraviolet/visible (UV/vis) spectroscopy.[21] […] EP shares an improved cLogP, but still relatively high from a desirable drug candidate (2.5–3.5). […] Compound 4 has a higher c log P, while compounds 5–10 have lower c log P values. To determine LiPE (lipophilicity efficiency), the following formula was used: LiPE = pIC50 – log P, according to established methods.[22],[23] […] The obtained EC50 values for the newly generated EP derivatives were within a similar range for other derivatives previously described against TNBC models.[17]
The following stable human cell lines were utilized for this study: SUM149 and MDA-MB-231 (breast cancer models) and BJ (human normal fibroblast, foreskin). Cells were purchased from BioIVT or the American Type Culture Collection (ATCC). Cells were cultured in F-12-Nutrient Mixture (SUM149), DMEM (MDA-MB-231), or EMEM (BJ) medium supplemented with 10% fetal bovine serum (Sigma-Aldrich, St. Louis, MO) and 2 mmol of L-glutamine, at 37 °C in a humidified 5% CO2 atmosphere (no antibiotics) as indicated by the manufacturer. Cell cultures were grown to 80–90% confluence before use, except where otherwise specified. Our cell lines are authenticated every 3 months using the CellCheck service (Idexx BioResearch, Westbrook, ME). Cells were tested for mycoplasma prior to use (MycoAlert detection Kit Lonza LT07–318) and discarded if they tested positive. A cell proliferation assay was performed using the CellTiter-Glo (Promega Corp., Madison, WI) luminescent cell viability assay kit. Cells were detached with trypsin, counted, and seeded in white polystyrene flat-bottom sterile 96-well tissue culture-treated plates (catalog no. 3917, Corning, Glendale, Arizona) and incubated overnight at 37 °C. MDA-MB231, SUM149, and BJ cells were seeded into 96-well plates at concentrations experimentally determined (0.4 × 10^4, 0.25 × 10^4, and 0.3 × 10^4 cells per well, respectively) to ensure logarithmic growth during the duration of the experiment and to prevent adverse effects on cell growth by DMSO exposure. The plates were incubated for 12 h before treatment. Stock solutions of test compounds (10 mM in DMSO) in nine 3-fold serial dilutions were dispensed. The final concentration of DMSO was 0.3% (v/v) in each well. The positive control used was staurosporine (10 μM) as the kill-all control, and the negative control used is DMSO as we have published. Staurosporine is a potent alkaloid inducer of various cell death modalities but primarily apoptosis, making it a reliable positive control for viability assays. The plates were incubated for 72 h and then quenched with CTG at 50 μL per well at RT. Plates were then incubated at RT for 20 min and centrifuged at 1000 rpm for 1 min. Luminescence was read on a CLARIOstar Plus plate reader (BMG LabTech, Ortenberg, Germany).
Three or four technical replicates were conducted for each experimental condition, and a minimum of three independent experiments were conducted for each assay. In vitro ADME values were expressed as mean ± standard deviation (SD) of at least three independent experiments. One-way analysis of variance (ANOVA) was adopted for comparisons among groups using the GraphPad Prism 10.2.3 (GraphPad Software, San Diego, CA). A difference of P < 0.05 was considered as statistically significant. […]
In general terms: Cellular ATP, detected with luciferase, serves as a proxy for viable cell number.

Take `CC(C)[C@@H](C)/C=C/[C@@H](C)[C@H]1CC[C@H]2C3=CC=C4C[C@@H](O)CC[C@]4(C)[C@H]3CC[C@]12C` [Compound 1, Ergosterol]: the LIPE result is reported as “–2.72”. Regarding `CC(C)[C@@H](C)/C=C/[C@@H](C)[C@H]1CC[C@@H]2[C@]1(C)CC[C@H]1[C@]23C=C[C@]2(C[C@@H](O)CC[C@]12C)OO3` [Compound 2, Ergosterol peroxide], the “TI (BJ/SUM149)” value is more than 9 and the LIPE entry is listed as “–1.28”. Turning to `CC(C)[C@@H](C)/C=C/[C@@H](C)[C@H]1CC[C@@H]2[C@]1(C)CC[C@H]1[C@]23C=C[C@]2(CC(=O)CC[C@]12C)OO3` [Compound 3], the “TI (BJ/SUM149)” value was more than 9 and the LIPE entry was “–1.54”. As for `C=CC(=O)O[C@H]1CC[C@]2(C)[C@H]3CC[C@]4(C)[C@@H]([C@H](C)/C=C/[C@H](C)C(C)C)CC[C@H]4[C@@]34C=C[C@]2(C1)OO4` [Compound 4], the “TI (BJ/SUM149)” value is recorded as more than 2.5 and the LIPE entry is given as “–2.91”.

`CC(C)[C@@H](C)C1OC1[C@@H](C)[C@H]1CC[C@@H]2[C@]1(C)CC[C@H]1[C@]23C=C[C@]2(C[C@@H](O)CC[C@]12C)OO3` (stereo partly drawn) [Compound 5]: the “TI (BJ/SUM149)” value is given as more than 25 and the LIPE is listed as 0.14. As for `CC(C)[C@@H](C)C1OC1[C@@H](C)[C@H]1CC[C@@H]2[C@]1(C)CC[C@H]1[C@]23C=C[C@]2(C[C@@H](OS(=O)(=O)O)CC[C@]12C)OO3` (stereo partly drawn) [Compound 5a], the “TI (BJ/SUM149)” value is on record as more than 15 and the LIPE entry is reported as “–0.07”. For `CC(C)[C@@H](C)/C=C/[C@@H](C)[C@H]1CC[C@@H]2[C@]1(C)CC[C@H]1[C@@]23OO[C@@]2(C[C@@H](O)CC[C@]12C)C(O)C3O` (stereo partly drawn) [Compound 6], in that order: more than 9 and “–0.08”. Consider `CC(C)[C@@H](C)/C=C/[C@@H](C)[C@H]1CC[C@@H]2[C@]1(C)CC[C@H]1[C@]23C=C[C@]2(C[C@@H](OC(=O)NS(=O)(=O)c4ccccc4)CC[C@]12C)OO3` [Compound 7], for which the “TI (BJ/SUM149)” value is on record as more than 8 and the LIPE result is “–2.6”.

On to `CC(C)[C@@H](C)C(O)C(O)[C@@H](C)[C@H]1CC[C@@H]2[C@]1(C)CC[C@H]1[C@@]23OO[C@@]2(C[C@@H](O)CC[C@]12C)C(O)C3O` (stereo partly drawn) [Compound 8], for which the “TI (BJ/SUM149)” value is recorded as more than 26 and the LIPE is given as 2. For `CC(C)[C@@H](C)/C=C/[C@@H](C)[C@H]1CC[C@@H]2[C@]1(C)CC[C@H]1[C@]23C=C[C@]2(C[C@@H](OS(=O)(=O)O)CC[C@]12C)OO3` [Compound 9], in that order: more than 18 and “–1.24”. For `CC(C)[C@@H](C)/C=C/[C@@H](C)[C@H]1CC[C@@H]2[C@]1(C)CC[C@H]1[C@@]23OO[C@@]2(C[C@@H](OS(=O)(=O)O)CC[C@]12C)C(OS(=O)(=O)O)C3OS(=O)(=O)O` (stereo partly drawn) [Compound 10], the “TI (BJ/SUM149)” value is reported as more than 24 and the LIPE entry is reported as “–0.07”.
